Primary screen of a compound library

Chains of the proteins cited; added tags and fusions are not shown. Residues count along the entry.
UniProt I6X8D2, whole entry: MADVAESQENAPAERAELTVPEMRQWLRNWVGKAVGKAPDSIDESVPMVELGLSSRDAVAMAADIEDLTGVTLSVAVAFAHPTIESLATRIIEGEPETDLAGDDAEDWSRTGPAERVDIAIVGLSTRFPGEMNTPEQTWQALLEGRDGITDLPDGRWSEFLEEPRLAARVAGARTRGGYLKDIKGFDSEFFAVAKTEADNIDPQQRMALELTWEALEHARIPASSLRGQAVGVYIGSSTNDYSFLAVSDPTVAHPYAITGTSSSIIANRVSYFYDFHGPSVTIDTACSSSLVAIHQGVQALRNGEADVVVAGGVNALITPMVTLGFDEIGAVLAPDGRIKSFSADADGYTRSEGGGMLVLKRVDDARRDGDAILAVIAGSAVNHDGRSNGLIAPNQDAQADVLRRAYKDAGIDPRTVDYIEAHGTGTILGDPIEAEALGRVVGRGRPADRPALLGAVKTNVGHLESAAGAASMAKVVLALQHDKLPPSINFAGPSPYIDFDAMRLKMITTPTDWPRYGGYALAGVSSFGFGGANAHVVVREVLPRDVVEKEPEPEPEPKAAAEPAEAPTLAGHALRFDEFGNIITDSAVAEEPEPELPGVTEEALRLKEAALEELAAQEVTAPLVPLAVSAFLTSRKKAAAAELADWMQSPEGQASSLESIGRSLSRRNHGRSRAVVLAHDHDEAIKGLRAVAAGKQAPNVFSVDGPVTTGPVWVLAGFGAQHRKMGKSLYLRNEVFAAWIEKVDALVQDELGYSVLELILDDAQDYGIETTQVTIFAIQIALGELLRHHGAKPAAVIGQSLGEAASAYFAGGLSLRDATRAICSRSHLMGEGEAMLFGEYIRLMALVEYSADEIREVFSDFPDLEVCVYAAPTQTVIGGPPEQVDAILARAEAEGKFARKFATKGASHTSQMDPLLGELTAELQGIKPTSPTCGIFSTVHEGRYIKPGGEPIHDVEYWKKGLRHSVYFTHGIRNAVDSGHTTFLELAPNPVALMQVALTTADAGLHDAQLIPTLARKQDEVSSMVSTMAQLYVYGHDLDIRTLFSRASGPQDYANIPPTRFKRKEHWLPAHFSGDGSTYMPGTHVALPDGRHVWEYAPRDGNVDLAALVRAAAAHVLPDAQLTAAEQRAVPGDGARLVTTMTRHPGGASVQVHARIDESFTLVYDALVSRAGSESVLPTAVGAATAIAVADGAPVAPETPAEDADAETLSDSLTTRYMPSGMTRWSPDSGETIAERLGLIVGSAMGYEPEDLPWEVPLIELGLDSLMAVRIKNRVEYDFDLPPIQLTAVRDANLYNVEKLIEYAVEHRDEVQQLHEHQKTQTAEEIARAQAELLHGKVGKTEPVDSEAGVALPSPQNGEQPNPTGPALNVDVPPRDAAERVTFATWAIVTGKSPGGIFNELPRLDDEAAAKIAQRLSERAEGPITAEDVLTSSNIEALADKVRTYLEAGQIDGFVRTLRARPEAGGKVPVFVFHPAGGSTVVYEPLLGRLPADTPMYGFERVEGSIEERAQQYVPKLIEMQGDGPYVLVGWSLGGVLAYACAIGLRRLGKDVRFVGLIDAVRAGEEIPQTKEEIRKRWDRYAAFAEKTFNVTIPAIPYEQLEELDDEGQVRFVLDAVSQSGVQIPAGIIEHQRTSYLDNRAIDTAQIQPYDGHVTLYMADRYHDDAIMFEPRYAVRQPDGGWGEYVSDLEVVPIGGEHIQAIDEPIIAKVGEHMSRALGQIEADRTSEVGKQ
UniProt A4I591, 1-473: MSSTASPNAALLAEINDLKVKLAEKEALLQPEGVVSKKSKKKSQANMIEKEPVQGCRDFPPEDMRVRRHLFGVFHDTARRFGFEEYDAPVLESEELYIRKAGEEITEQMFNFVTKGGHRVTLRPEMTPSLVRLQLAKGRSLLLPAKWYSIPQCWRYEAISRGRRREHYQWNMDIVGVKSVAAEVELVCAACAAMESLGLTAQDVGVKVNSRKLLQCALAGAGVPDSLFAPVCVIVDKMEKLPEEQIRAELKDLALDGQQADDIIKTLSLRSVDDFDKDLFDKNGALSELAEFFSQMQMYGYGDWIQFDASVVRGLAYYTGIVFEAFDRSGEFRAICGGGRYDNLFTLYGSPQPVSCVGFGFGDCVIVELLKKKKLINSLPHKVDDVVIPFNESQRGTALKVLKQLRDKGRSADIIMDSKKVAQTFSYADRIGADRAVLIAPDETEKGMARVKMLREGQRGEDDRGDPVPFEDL

Source: ChEMBL document CHEMBL3988442, “University of Dundee, Small-Polar-MMV Screening Library” (2021).

Leishmania in macrophages: 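Cell assay of Leishmania donovani living inside macrophages; the read-out is not stated. Compounds at 30 µM. Direction is inferred from retests: higher values go with stronger inhibition. Size under these conditions: about 69,000 compounds, about 1,000 of them at 50% or above in at least one test.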
Pks13 thioesterase: 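Polyketide synthase Pks13, Mycobacterium tuberculosis (UniProt I6X8D2). Enzyme assay of the thioesterase domain of polyketide synthase 13; the read-out is not stated. Compounds at 30 µM. The record gives no direction; the compounds picked for IC50 retests had high values, so higher reads as stronger inhibition. About 67,000 compounds were tested under these conditions; 0.46% (about 300) showed 50% or more at least once.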
LiHisRS: 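Histidine-tRNA ligase, Leishmania infantum (UniProt A4I591). Enzyme assay of histidyl-tRNA synthetase; the read-out is not stated. Compounds at 30 µM. The record gives no direction; compounds that gave an IC50 in retests scored well above the rest, so higher reads as stronger inhibition. The assay is labelled LdHisRS but filed under L. infantum. Size under these conditions: about 69,000 compounds, about 410 of them at 50% or above in at least one test.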

Results are given as percent effect.
The controls that fix the scale are not given in the record; negative values are as filed.
This is an unselected part of the compounds tested.
A dash means the value is not listed here; it may have been measured.

| # | SMILES | Leishmania in macrophages | Pks13 thioesterase | LiHisRS |
|---|---|---|---|---|
| 1 | `COCc1ncc(-c2nccn2CCN(C)C)cn1` | -3.857 | -7.363 | 18.18 |
| 2 | `Cc1sc(Br)cc1S(=O)(=O)NCCN` | - | -17.28 | 14.29 |
| 3 | `Cc1oc(-c2nc(C#N)c(NC(C)C)o2)cc1S(=O)(=O)N1CCCC1` | -12.6 | -18.19 | -2.632 |
| 4 | `Cc1cc(C)nc(N2CCC(C(=O)Nc3ncc[nH]3)CC2)n1` | 5.207 | 2.443 | 14.61 |
| 5 | `Oc1nnc(-c2cccs2)c2sc(N3CCCC3)nc12` | 15.62 | -12.26 | -1.695 |
| 6 | `O=C(O)C(F)(F)F.[H][C@@]12C[C@H](C(=O)NC3CCC3)[C@@]([H])(CN(CC3CC3)C1)O2` | 26.17 | - | - |
| 7 | `Cc1cccc(-c2noc(CN3CCC(c4ccn[nH]4)CC3)n2)c1` | 43.8 | 6.383 | -1.613 |
| 8 | `Cn1cccc1C(=O)N1CC2(CCN(C(=O)c3cccnc3)C2)C1` | - | -13.96 | 20.91 |
| 9 | `Cn1nc(C2CCN(CC(=O)NC3CC3)CC2)n(-c2ccccc2)c1=O` | 9.733 | -33.03 | 7.692 |
| 10 | `CCC(C)(COc1ncccc1Cl)NCC(=O)NC1CCCCC1` (configuration not stated) | 13.02 | -6.257 | 10.84 |
| 11 | `CCCC(=O)N1CCC(c2cc3n(n2)[C@@H](C(F)(F)F)C[C@@H](C)N3)CC1` | 18.56 | -6.577 | 2 |
| 12 | `COc1cccc(C2CC(=O)Nc3c2cnn3C(C)(C)C)c1` (configuration not stated) | -16.02 | -59.07 | 20.78 |
| 13 | `COc1ccc(CN2C[C@H]3C[C@H](CN(C)C)O[C@H]3C2)cc1` | - | -5.409 | 5.769 |
| 14 | `CNC(=O)c1cccc(CN2CCC(N(C)Cc3nnc(C)o3)C2)c1` (configuration not stated) | -3.673 | 2.176 | -0.8929 |
| 15 | `CCC(C)N(Cc1cccnc1)C(=O)c1ccc(OC)cc1O` (configuration not stated) | -4.677 | -5.164 | 3.297 |
| 16 | `COc1ccc(C(C(=O)O)N2CCCN(C3CCCCC3)CC2)cn1` (configuration not stated) | -20.86 | -19.01 | 16.98 |
| 17 | `COc1ccc2c(c1)C(=O)NC1(CC2)CCN(Cc2ccc(F)cc2)C1` (configuration not stated) | 17.07 | -11.05 | 11.59 |
| 18 | `O=C(NCC1(Sc2ccccc2)CC1)c1ccc(=O)[nH]n1` | 21.25 | 5.636 | 16.67 |
| 19 | `Nc1cc(-c2cccs2)nn(CC(=O)NCC2CCCCC2)c1=O` | 4.703 | 14.89 | 4 |
| 20 | `COc1cc(C(=O)NCCc2cccc(C)c2)on1` | -42.19 | -9.536 | 13.7 |
| 21 | `CC(C)NCC1OCCc2cn(C)nc21` (configuration not stated) | - | -33.17 | 6 |
| 22 | `CN(C)c1ccc(C(=O)N2CCCC(n3cccn3)C2)nn1` (configuration not stated) | -1.159 | -6.988 | 9.649 |
| 23 | `CC(C)CCOc1ccc(C(C)NC(=O)Cn2cccnc2=O)cc1` (configuration not stated) | 29.53 | -38.07 | 17.33 |
| 24 | `Cc1nc(C)n(CC2CCCN(Cc3nc(C)c(C)o3)C2)n1` (configuration not stated) | 11.15 | - | 23.81 |
| 25 | `CNC(=O)[C@H]1C[C@@H]2CN(S(=O)(=O)c3ccc(OC)cc3)C[C@@H]2N1C` | - | -0.2708 | 17.14 |
| 26 | `CCn1cnnc1C1CCN(C(=O)c2ccc(Cl)s2)CC1` | 33.03 | -39.01 | -12.36 |
| 27 | `O=C(COC1CCCC1)NC(C(=O)Nc1cc[nH]n1)c1ccccc1` (configuration not stated) | 18.2 | 3.091 | 15.08 |
| 28 | `Cc1cnn(CC2CN(Cc3nc4cccnc4[nH]3)CCO2)c1` (configuration not stated) | 4.179 | -8.749 | -4.425 |
| 29 | `O=C(O)C(F)(F)F.[H][C@]12CCN(C(=O)Cc3ccccc3)C[C@@]1([H])OCCN(CCOC)C2` | 5.424 | - | - |
| 30 | `CC(C)(CNC1CCCN(Cc2ccccn2)C1)CN1CCOCC1` (configuration not stated) | 5.95 | -78.64 | 12.24 |
| 31 | `CCN1CCOCC2(CCCN(C(=O)c3ccncc3F)C2)C1` (configuration not stated) | - | -23.43 | 17.43 |
| 32 | `Cc1cc(C)n(CC2CCCCN2C(=O)c2ccc(C(N)=O)cc2)n1` (configuration not stated) | -7.069 | -13.57 | 14.04 |
| 33 | `CNS(=O)(=O)c1ccc(CNC(=O)N(C)CC(C)C)cc1` | 72.03 | -7.318 | 19.75 |
| 34 | `Cc1cnc(N2CCOC3(CCCN(C)C3)C2)nc1.O=C(O)C(F)(F)F` (configuration not stated) | -18.18 | - | - |
| 35 | `C=C(C)COc1ccccc1CNC(CC)c1ccnn1C` (configuration not stated) | 16.87 | -4.898 | 13.6 |
| 36 | `Cc1ccccc1C1(O)CCN(C(=O)CCc2cn3ccccc3n2)C1` (configuration not stated) | -10.98 | -12.19 | 4.301 |
| 37 | `CCCc1cc(NC2CCN(Cc3ccccn3)CC2)n2nccc2n1` | 23.23 | -6.91 | 24.66 |

3 of the entries, repeated:

Result for Cc1cc(C)n(CC2CCCCN2C(=O)c2ccc(C(N)=O)cc2)n1 (configuration not stated) was Leishmania in macrophages: -7.069%; Pks13 thioesterase: -13.57%; LiHisRS: 14.04%.
Result for O=C(O)C(F)(F)F.[H][C@]12CCN(C(=O)Cc3ccccc3)C[C@@]1([H])OCCN(CCOC)C2 was Leishmania in macrophages: 5.424%.
Result for CNS(=O)(=O)c1ccc(CNC(=O)N(C)CC(C)C)cc1 was Leishmania in macrophages: 72.03%; Pks13 thioesterase: -7.318%; LiHisRS: 19.75%.